In paper PMC5646874 one finds binding data, which are given here for one substance.

By UniProt entry, the sequences of proteins in these tests, tags left out. Where a name states a change or a piece, a line headed by the entry shows the natural chain unless it says otherwise.
UniProt Q8IDE6: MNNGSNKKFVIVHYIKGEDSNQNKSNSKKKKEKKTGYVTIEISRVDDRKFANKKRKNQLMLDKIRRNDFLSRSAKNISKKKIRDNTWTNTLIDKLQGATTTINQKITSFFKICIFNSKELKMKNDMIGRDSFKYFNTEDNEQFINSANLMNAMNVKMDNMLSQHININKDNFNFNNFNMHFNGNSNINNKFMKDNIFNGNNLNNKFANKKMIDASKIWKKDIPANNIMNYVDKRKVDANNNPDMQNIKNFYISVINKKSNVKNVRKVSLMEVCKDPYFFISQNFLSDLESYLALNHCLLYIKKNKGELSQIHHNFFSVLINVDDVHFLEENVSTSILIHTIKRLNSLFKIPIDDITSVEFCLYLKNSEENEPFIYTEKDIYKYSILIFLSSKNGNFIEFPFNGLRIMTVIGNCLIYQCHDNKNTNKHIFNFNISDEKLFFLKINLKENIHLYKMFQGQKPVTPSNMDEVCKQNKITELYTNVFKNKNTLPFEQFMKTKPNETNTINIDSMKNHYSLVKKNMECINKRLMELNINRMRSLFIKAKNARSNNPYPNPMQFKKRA
UniProt Q8ILF4: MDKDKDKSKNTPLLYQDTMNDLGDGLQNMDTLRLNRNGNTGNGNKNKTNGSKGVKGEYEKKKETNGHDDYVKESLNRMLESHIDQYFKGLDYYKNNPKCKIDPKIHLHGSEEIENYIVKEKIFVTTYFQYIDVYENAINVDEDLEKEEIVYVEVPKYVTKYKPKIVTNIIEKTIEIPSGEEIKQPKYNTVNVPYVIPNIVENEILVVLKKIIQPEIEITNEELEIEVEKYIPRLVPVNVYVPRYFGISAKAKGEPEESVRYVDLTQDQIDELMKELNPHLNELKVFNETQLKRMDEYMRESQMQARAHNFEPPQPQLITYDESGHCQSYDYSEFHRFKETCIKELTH

In the assay the target is PIP1-HA (HA-glmS fusion of PhIL1 interacting protein-1, PF3D7_1355600) (P. falciparum) (UniProt Q8IDE6). Description: affinity purification with mass spectrometry; extracts of PIP1-HA-glmS parasites solubilised in 1% Triton X-100, anti-HA agarose beads, in-solution tryptic digestion, mass spectrometry; two independent experiments, wild type 3D7 as control.

Results are given in words; binding and its absence hold for the method and conditions named. Binding seen in cells or lysates may run through a third protein. These calls come from enrichment with a bait or labelling near it, and not all partners need be listed.

In the case of “PhIL1 Interacting Protein 2 (PIP2, PF3D7_1431100) (from UniProt Q8ILF4)”, the binding result was “binds”.
